Assay results as given in paper PMC12431657, “Discovery and mechanistic insights of dibenzoylmethane as a broad spectrum inhibitor of coronavirus” (PLOS Pathogens, 2025).
Read-outs that look alike come from different tables or passages of the source. The whole screen tested about 3,300 compounds, of which about 95 (3%) showed an effect of 50% or more. Some of the results follow.

Test system: HCoV-229E
Parameters: species or system Huh-7; HTS, protection from HCoV-229E induced cell death, luminescent cell viability (CellCounting-Lite 2.0), inhibition rate
Conditions: 24 h post infection, 1 h compound pre-incubation, 10 µM, inhibitor

Row | SMILES | 229E Inhibition rate [%] | 229E Inhibition rate (229E Inhibition rate, 24 h) [%]
1 | C[C@H]1CC[C@@]2(OC1)O[C@H]1C[C@H]3[C@@H]4CC=C5C[C@@H](O[C@@H]6O[C@@H](C)[C@H](O)[C@@H](O)[C@H]6O)C[C@@H](O[C@@H]6O[C@H](C)[C@H](O)[C@H](O)[C@H]6O)[C@]5(C)[C@H]4CC[C@]3(C)[C@H]1[C@@H]2C [Liriopesides B] | 38 | 
2 | O=C(O)[C@H]1CC[C@H](O)CC1 [trans-4-Hydroxycyclohexanecarboxylic acid] | 7 | 
3 | O=C(O)C1=C[C@@H](O)[C@@H](O)[C@H](O)C1 [Shikimic acid] | 8.6 | 
4 | Cc1ccc(C=O)s1 [5-Methyl-2-thiophenecarboxaldehyde] | 19.9 | 
5 | CNc1ncnc2c1ncn2[C@@H]1O[C@H](CO)[C@@H](O)[C@H]1O [N6-Methyladenosine] | 24.4 | 
6 | CO[C@@H]1[C@H](O)[C@@H](CO)O[C@H]1n1ccc(=O)[nH]c1=O [2′-O-Methyluridine] | 20.9 | 
7 | COc1cc(/C=C/C(=O)O[C@H]2CC[C@]34C[C@]35CC[C@]3(C)[C@@H]([C@H](C)CCC=C(C)C)CC[C@@]3(C)[C@@H]5CC[C@H]4C2(C)C)ccc1O [γ-Oryzanol] | 22.1 | 
8 | COc1cc(C(=O)OCCCCNC(=N)N)cc(OC)c1O [Leonurine] |  | 6.2
9 | COC[C@@H]1Cc2cc(OC)c3c(c2[C@H](c2ccc(OC)c(OC)c2)[C@H]1COC)OCO3 [Hypophyllanthin] | 24.8 | 
10 | CC/C=C/CC1C(=O)CCC1CC(=O)OC (stereo not drawn) [Methyl 2-(3-oxo-2-(pent-2-en-1-yl)cyclopentyl)acetate] | 22 | 
11 | COc1cc2c3c(c1OC)-c1ccccc1C[C@H]3NCC2 [N-Nornuciferine] | 12 | 
12 | C[C@H](CCC(=O)O)[C@H]1CC[C@H]2[C@@H]3C(=O)C[C@@H]4C[C@H](O)CC[C@]4(C)[C@H]3CC[C@]12C [7-Ketolithocholic acid] | 20.5 | 
13 | CC(C)=CCc1c(-c2ccc(O)cc2O)oc2c3c(cc(O)c2c1=O)OC(C)(C)C=C3 [Morusin] | 12.3 | 
14 | C[C@H]1CC[C@@H]2[C@@H](C)[C@H]3[C@H](C[C@H]4[C@@H]5CC=C6C[C@@H](O)CC[C@]6(C)[C@H]5CC[C@]34C)N2C1 [Solanidine] | 24.2 | 
15 | CC1(C)CC[C@]2(C(=O)O)CC[C@]3(C)C(=CC[C@@H]4[C@@]5(C)CC[C@H](O[C@@H]6OC[C@H](O)[C@H](O)[C@H]6O)[C@@](C)(CO)[C@@H]5CC[C@]43C)[C@@H]2C1 [Cauloside A] | 4.8 | 
16 | N#CCCN [β-Aminopropionitrile] | 23.5 | 
17 | COc1cc(/C=C/C(=O)O)ccc1O [(E)-Ferulic acid] |  | 0
18 | c1cncc(C2CCCCN2)c1 (racemic) [(±) Anabasine] | 46.6 | 
19 | C[C@H]1O[C@H](O[C@H]2[C@H](O)[C@@H](O)[C@@H](O[C@H]3[C@H](O)[C@@H](O)C(O)O[C@@H]3CO)O[C@@H]2CO)[C@H](O)[C@@H](O)[C@@H]1N[C@H]1C=C(CO)[C@@H](O)[C@H](O)[C@H]1O (stereo partly drawn) [Acarbose] | 12.4 | 

Row | SMILES | 229E Inhibition rate [%] | 229E Inhibition rate (229E Inhibition rate, 24 h) [%]
20 | Cc1cc(O[C@@H]2O[C@H](CO)[C@@H](O)[C@H](O)[C@H]2O)c2c(c1)C(=O)c1cccc(O)c1C2=O [Chrysophanein] | 51.1 | 
21 | CC1(C)CC[C@]2(C(=O)O)CC[C@]3(C)C(=CC[C@@H]4[C@@]5(C)CC[C@H](O[C@@H]6O[C@H](C(=O)O)[C@@H](O)[C@H](O[C@@H]7OC[C@@H](O)[C@H](O)[C@H]7O)[C@H]6O)C(C)(C)[C@@H]5CC[C@]43C)[C@@H]2C1 [Momordin Ic] | 2.6 | 
22 | C=CCc1ccc(O)c(O)c1 [4-Allylcatechol] | 0 | 
23 | CC(C)=CCc1c(-c2ccc(O)cc2O)oc2c(CC=C(C)C)c(O)cc(O)c2c1=O [Mulberrin] | 20.6 | 
24 | C[C@@H](CC[C@@]1(O)O[C@H]2C[C@H]3[C@@H]4CC[C@@H]5C[C@@H](O[C@@H]6O[C@H](CO)[C@H](O)[C@H](O)[C@H]6O[C@@H]6O[C@H](CO)[C@@H](O)[C@H](O)[C@H]6O)CC[C@]5(C)[C@H]4CC[C@]3(C)[C@H]2[C@@H]1C)CO[C@@H]1O[C@H](CO)[C@@H](O)[C@H](O)[C@H]1O [Timosaponin BII] | 6.1 | 
25 | COC(=O)C1=CC[C@@]23CC[C@@H]([C@@](C)(/C=C/C=C(\C)C(=O)O)OC2=O)[C@@]3(O)CC1 [Pseudolaric Acid C] | 9.7 | 
26 | CC(=O)O[C@H]1[C@H]2[C@H]([C@@H]3[C@H]4OC(=O)[C@@](C)(O)[C@@]5(C)C(=O)C[C@@H](C)[C@@H]([C@@H]45)[C@@]3(C)[C@H]1OC(C)=O)[C@@H](OC(C)=O)C(=O)[C@H]1C[C@@H]3O[C@@H]3[C@H](OC(C)=O)[C@]21C [Taccalonolide C] | 10.3 | 
27 | CC(C)c1ccc(C(=O)O)cc1 [4-Isopropylbenzoic acid] | 24.8 | 
28 | CC1(C)CC[C@]2(C(=O)O)CC[C@]3(C)C(=CC[C@@H]4[C@@]5(C)C[C@@H](O)[C@H](O)C(C)(C)[C@@H]5CC[C@]43C)[C@@H]2C1 [Maslinic acid] | 20.7 | 
29 | COc1c(O[C@@H]2O[C@H](CO)[C@@H](O)[C@H](O)[C@H]2O)cc2oc(-c3ccc(O)cc3)cc(=O)c2c1O [Homoplantaginin] | 0 | 
30 | N#C/C=C1/C=C[C@@H](O)[C@H](O)[C@H]1O[C@@H]1O[C@H](CO)[C@@H](O)[C@H](O)[C@H]1O [Lithospermoside] | 8 | 
31 | Nc1nc2c(ncn2[C@@H]2O[C@H](COP(=O)(O)OP(=O)(O)OC3O[C@H](CO)[C@@H](O)[C@H](O)[C@@H]3O)[C@@H](O)[C@H]2O)c(=O)[nH]1 (stereo partly drawn) [GDP-D-mannose (disodium)] | 10.7 | 
32 | CCCCCCCCCCCCCCCCCCC(=O)O [Nonadecanoic acid] | 0 | 
33 | COc1cc2c(c(OC)c1OC)C(=O)c1c(cc(C)c(O)c1OC)C2=O [Chrysoobtusin] | 21.3 | 
34 | OC[C@H]1O[C@@H](n2cnc3c(O)nc(O)nc32)[C@H](O)[C@@H]1O [Xanthosine] | 9.5 | 
35 | C[C@H]1O[C@@H](O[C@@H]2CC[C@@]3(C)[C@@H](CC[C@]4(C)[C@@H]3C=C[C@]35OC[C@@]6(CCC(C)(C)C[C@H]63)[C@@H](O)C[C@]54C)[C@@]2(C)CO)[C@H](O)[C@@H](O)[C@H]1O (stereo in doubt) [Prosaikogenin G] | 4.4 | 
36 | CCCCCCCCCCCCCCCCCCCCCCCCC [Pentacosane] | 17.1 | 
37 | CC(=O)OCC(=O)[C@@]1(O)CC[C@H]2[C@@H]3CCC4=CC(=O)C=C[C@]4(C)[C@@]3(Cl)[C@@H](Cl)C[C@@]21C [Dichlorisone acetate] | 17.4 | 
38 | C=C1CC[C@@H]2[C@](C)(CO)[C@H](O)CC[C@@]2(C)[C@@H]1CCC1=CCOC1=O [Deoxyandrographolide] |  | 12.8

Row | SMILES | 229E Inhibition rate [%] | 229E Inhibition rate (229E Inhibition rate, 24 h) [%]
39 | O=C(O)CCCCCCCC(=O)O [Azelaic acid] | 39.6 | 
40 | COc1ccc(-c2cc(=O)c3c(O)c(OC)c(OC)cc3o2)cc1O [Eupatorin] | 27.4 | 
41 | O=C1Cc2cc(O)ccc2N1 [5-Hydroxyoxindole] | 7.7 | 
42 | CCCCCCCCCCCCCCCC(=O)OC/C=C(C)/C=C/C=C(C)/C=C/C1=C(C)CCCC1(C)C [Retinyl palmitate] | 11.4 | 
43 | CC(=O)OC/C=C/c1ccccc1 [Cinnamyl acetate] | 30 | 
44 | CN1c2ccccc2C(=O)N2CCc3c([nH]c4ccccc34)C21 (racemic) [(±)-Evodiamine] | 18.7 | 
45 | O=C[C@H](O)[C@@H](O)[C@H](O)[C@H](O)C(=O)O [D-Glucuronic acid] | 57.5 | 
46 | CCc1ccc(O)cc1 [4-Ethylphenol] | 20.1 | 
47 | CC(=O)OCC(=O)[C@@]1(O)CC[C@H]2[C@@H]3CCC4=CC(=O)CC[C@]4(C)[C@H]3[C@@H](O)C[C@@]21C [Hydrocortisone acetate] | 20 | 
48 | CC(=O)O[C@@H]1[C@@H](O)[C@H](O[C@H]2CC[C@]34C[C@]35CC[C@]3(C)[C@@H]([C@@]6(C)CC[C@@H](C(C)(C)O)O6)[C@@H](O)C[C@@]3(C)[C@@H]5C[C@H](O[C@@H]3O[C@H](CO)[C@@H](O)[C@H](O)[C@H]3O)[C@H]4C2(C)C)OC[C@H]1O [Isoastragaloside II] | 45.1 | 
49 | COC(=O)c1cc(OC)c(OC)c(OC)c1 [Methyl 3,4,5-trimethoxybenzoate] | 6.6 | 
50 | Cc1ccc2ccc(=O)oc2c1 [7-Methylcoumarin] | 12.4 | 
51 | COc1cc(C)c2c(=O)cc(C[C@@H](C)O)oc2c1[C@@H]1O[C@H](CO)[C@@H](O)[C@H](O)[C@H]1OC(=O)/C=C/c1ccc(O)cc1 [Aloeresin D] | 14.9 | 
52 | Nc1nc(N)nc(N)n1 [Melamine] | 5.4 | 
53 | CCCCCCCCCCCCCCCO [1-Pentadecanol] | 11.4 | 
54 | CC(C)CCCO [4-Methyl-1-pentanol] | 20.1 | 
55 | O=c1cc(-c2ccccc2)oc2c(O)c(O)ccc12 [7,8-Dihydroxyflavone] | 38 | 
56 | COc1ccc([C@@H]2CC(=O)c3c(O)cc(O)cc3O2)cc1O [Hesperetin] | 11 | 
57 | O=C1O[C@H]([C@H](O)CO)C(O)=C1O [Erythorbic acid] |  | 11

From no. 52 to 54, copied from above:
Row | SMILES | 229E Inhibition rate [%] | 229E Inhibition rate (229E Inhibition rate, 24 h) [%]
52 | Nc1nc(N)nc(N)n1 [Melamine] | 5.4 | 
53 | CCCCCCCCCCCCCCCO [1-Pentadecanol] | 11.4 | 
54 | CC(C)CCCO [4-Methyl-1-pentanol] | 20.1 | 
